Assay results published in publication PMC10974264.
For some assays here: Negatives hold for the conditions tested. Weaker means in comparison with the reference protein, sequence or condition of that experiment. For some assays here: Protein sequences can lack the tags named with them. For some assays here: Construct, isoform or probe ends are uncertain for at least one entry. For some assays here: At least one verdict was read from the data and is not stated in words by the source.

Protein sequences, listed by entry. Tags and fused reporters are not part of them. Residues count along the entry.
UniProt P12643, 283-396: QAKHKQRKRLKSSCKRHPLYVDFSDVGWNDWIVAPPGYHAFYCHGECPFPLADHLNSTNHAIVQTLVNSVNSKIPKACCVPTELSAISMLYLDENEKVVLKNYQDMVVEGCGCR
UniProt P02769, 25-607: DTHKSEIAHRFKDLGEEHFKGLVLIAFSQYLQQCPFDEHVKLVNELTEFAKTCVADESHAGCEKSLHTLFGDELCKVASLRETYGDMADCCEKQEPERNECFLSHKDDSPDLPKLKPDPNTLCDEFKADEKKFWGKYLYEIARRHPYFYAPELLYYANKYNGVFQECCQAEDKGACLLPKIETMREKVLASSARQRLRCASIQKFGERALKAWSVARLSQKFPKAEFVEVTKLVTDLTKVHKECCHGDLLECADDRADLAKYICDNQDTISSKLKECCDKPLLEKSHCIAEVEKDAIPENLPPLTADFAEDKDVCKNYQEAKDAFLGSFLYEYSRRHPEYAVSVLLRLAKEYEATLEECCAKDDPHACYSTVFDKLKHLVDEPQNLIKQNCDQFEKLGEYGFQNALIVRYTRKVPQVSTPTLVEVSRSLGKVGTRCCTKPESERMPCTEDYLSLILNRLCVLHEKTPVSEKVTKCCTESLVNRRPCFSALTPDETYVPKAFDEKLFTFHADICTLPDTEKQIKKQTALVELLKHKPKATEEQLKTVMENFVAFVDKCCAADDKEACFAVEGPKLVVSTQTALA

How the values were obtained:
[1] = molecular target: rhBMP-2 (His-tagged, refolded, E. coli-expressed) (human) (UniProt P12643); experiment: EMSA; details: EMSA: 20 mM HEPES pH 7.4, 150 mM NaCl, 2 mM MgCl2, 2 mM CaCl2, 2 mM KCl, 37 C 1 h, 12% native PAGE at 4 C, recombinant protein, protein details: His tag (pET-15b NdeI/BamHI), single-stranded DNA
BSA = BSA (UniProt P02769); experiment: EMSA; ELONA; details: weak non-specific binding; EMSA: 20 mM HEPES pH 7.4, 150 mM NaCl, 2 mM MgCl2, 2 mM CaCl2, 2 mM KCl, 37 C 1 h, 12% native PAGE at 4 C; label: biotin (ELONA), none in EMSA; single-stranded DNA
BMP-3 (rhBMP-3) = molecular target: T1, BMP-3 (rhBMP-3) (UniProt P12645); experiment: EMSA; ELONA; details: weak non-specific binding; EMSA: 20 mM HEPES pH 7.4, 150 mM NaCl, 2 mM MgCl2, 2 mM CaCl2, 2 mM KCl, 37 C 1 h, 12% native PAGE at 4 C; label: biotin (ELONA), none in EMSA; single-stranded DNA
T1 sequence (looked up, limits assumed): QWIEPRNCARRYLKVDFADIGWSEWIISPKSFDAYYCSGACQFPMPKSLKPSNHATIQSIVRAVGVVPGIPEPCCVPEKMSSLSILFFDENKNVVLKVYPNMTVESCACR

[2] = molecular target: rhBMP-2 (His-tagged, refolded, E. coli-expressed) (human) (UniProt P12643); experiment: competition with a labelled probe; details: EMSA: 20 mM HEPES pH 7.4, 150 mM NaCl, 2 mM MgCl2, 2 mM CaCl2, 2 mM KCl, 37 C 1 h, 12% native PAGE at 4 C, recombinant protein, protein details: His tag (pET-15b NdeI/BamHI), label: biotin (ELONA), none in EMSA, single-stranded DNA
[3] = molecular target: rhBMP-2 (His-tagged, refolded, E. coli-expressed) (human) (UniProt P12643); experiment: ssDNA Qubit assay; details: high-salt binding buffer; recombinant protein; protein details: His tag (pET-15b NdeI/BamHI); label: biotin (ELONA), none in EMSA; single-stranded DNA

Sequence | binding result ([1]; 1 uM BMP-2, 25 nM DNA, BA1 much stronger and stated more specific than scramble) | binding result (BSA) | binding result (BMP-3 (rhBMP-3)) | binding result ([2]; BA1 pre-bound, slowly replaced by heparin) | binding result ([2]; heparin pre-bound: fully inhibited BA1 binding) | binding result ([2]; polyphosphate (polyP65) competitor, results consistent with heparin) | binding result ([1]; unbound band decreases with rhBMP-2 0-5 uM, complex band not seen, label: biotin (ELONA), none in EMSA) | binding result [3]
CGTACGGTCGACGCTAGCAAAAACAAAAAGGAAAAACCAAAAAAACATAAAAACACGTGGAGCTCGGATCC [BA5 (used as scramble control)] | binds more weakly | – | – | – | – | – | – | –
CGTACGGTCGACGCTAGCAAAACAAAAAAAAATAAAAAAAAAAAGACTAAAGACACGTGGAGCTCGGATCC [BA1] | – | binds more weakly | binds more weakly | binds more weakly | no binding | binds more weakly | binds | binds more weakly
